Results from patent US20210221879A1.

Molecular target: Keyhole limpet hemocyanin containing AGEs derived from glyceraldehyde (Glycer-AGEs-KLH) (keyhole limpet)
Assay: ELISA of hybridoma culture supernatant on immobilised antigen

B1: novel monoclonal antibody PB-1 (antibody, V domains shown)
VH: EVRLQQSGPELVKPGTSVKISCKASGYSFTGYYMHWVKQSPVKSLEWIGRIIPYNGATSYNQNFKDKASLTVDKSSRTAYMDLHSLTSEDSAVYYCARSRYYGRAPYYFDYWGQGTTLTVSS
VL: DVVVTQTPLSLPVSLGDQASISCRSSQSIVHSNGNTYLEWYLQKPGQSPKLLIYKVSNRFSGVPDRISGSGSGTDFTLKISRVEAGDLGVYSCFQGSHVPFTFGSGTKLEIK
With B1 the binding was “binds”.

These are yes or no findings as the source states them, for the method shown. A result given as binding can be weak or reduced; the word gives no strength.
